A short description of the first data set: general procedure: solution-phase peptide synthesis; BOP. The conditions noted are these: coupling step, HCl.
Regarding Boc-Ala-ACHPA-Leu-Phe-NH2, the step yield came to 79%.
Same read-out and setting: next, Boc-THIQ-Val-ACHPA-Ala-Phe-NH2: 38%.
Same read-out and setting: next, Boc-THIQ-Ala-ACHPA-Leu-Phe-NH2: 77%; Boc-Phe.psi.[CH2 NH]Leu-Leu-Phe-NH2: 56%.

The data set is the same for the next values; noted with them: late stage modification step, HCl.
For the substance THIQ-Val-ACHPA-Ala-Phe-NH2.HCl, the step yield is on record as 51%.
THIQ-Val-ACHPA-Asp-Phe-NH2.HCl had a step yield of 49%.
Still for that read-out and setting: the result for Boc-THIQ-Ala-ACHPA-Leu-Phe-OH reads 66%.
THIQ-Ala-ACHPA-Leu-Phe-NH2.HCl returned a step yield of 93%.

Source of the values: patent US5212157A (Bio-Mega, Inc., priority 1989, dated 1993).
